Measurements: PubChem BioAssay AID445 (National Center for Advancing Translational Sciences (NCATS), 2006)
The other results are listed elsewhere or left out. Further columns of the screen follow, without active or inactive calls. Most of these compounds were active or inconclusive in the main read-out, so they are no random draw. The note in brackets gives the kind of curve behind each potency; many fits are weak.

Test: IkB Signaling
Conditions: ABC-DLBCL IkBa-CBG/CBR dual luciferase ratio (green luciferase fused to IkBa over red control in OCI-Ly3 lymphoma cells), 4 h
How it was run: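 In this assay, an IκBα–CBG68 fusion accumulates when IKK-driven degradation is blocked; native CBR normalizes for cell number. OCI-Ly3 cells were treated 4 h with compound and doxycycline, then green and red light read after Chroma-Glo addition.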

[1] = measured here: control luc red channel unless noted

CCN(CC)S(=O)(=O)c1ccc2c(c1)c(=O)c(C(=O)N1CCN(c3cc(C)ccc3C)CC1)cn2C
AC50 [1]: 20 µM [falling, partial curve, poor fit]

Cc1nc(NC(=O)c2ccccc2)sc1-c1csc(N)n1
AC50 [1]: 10 µM [falling, partial curve]

NCCNS(=O)(=O)c1cccc2c(Cl)cccc12
AC50 [1]: 20 µM [falling, partial curve]

CCc1ccc2[nH]c(=O)c(C(c3nnnn3CC3CCCO3)N3CCCc4ccccc43)cc2c1 (configuration not stated)
AC50 [1]: 25.1 µM [falling, single point]

Cc1cc(C)c(NS(=O)(=O)c2ccc3c(c2)NC(=O)CCS3)c(C)c1
AC50 [1]: 20 µM [falling, partial curve]

CCc1ccccc1NS(=O)(=O)c1ccc(SC)cc1
AC50 [1]: 20 µM [falling, partial curve]

COc1ccccc1N1CCN(C[C@@H](O)COc2cccc3ccccc23)CC1
AC50 [1]: 31.6 µM [falling, partial curve]

COC(=O)C1=C(C)NC(C)=C([N+](=O)[O-])[C@@H]1c1ccccc1C(F)(F)F
AC50 [1]: 39.8 µM [falling, single point]

CCCCN(CCCNC(=O)c1c(C)cc(=O)oc1C)c1ccccc1
AC50 [1]: 39.8 µM [falling, single point]

CC(=O)c1ccc(NC(=O)CSc2nnc(NC(=O)NC3CCCCC3)s2)cc1
AC50 [1]: 39.8 µM [falling, single point]

O=C(COc1ccccc1Cl)Nc1ccc2c(c1)OCCO2
AC50 [1]: 25.1 µM [falling, single point]

CCOC(=O)c1cc(-c2ccccc2)n(CC(=O)Nc2cc(Cl)c(OC)cc2OC)c1C
AC50 [1]: 1 µM [rising, full curve]

Cc1nn(C(C)C(=O)Nc2cccc(F)c2)c(=O)c2c1sc1ccccc12 (configuration not stated)
AC50 [1]: 10 µM [falling, partial curve]

Cc1ccc(Nc2c(-c3ccc(N4CCOCC4)cc3)nc3ncccn23)c(C)c1
AC50 [1]: 31.6 µM [falling, single point]

CC(C)C(c1nnnn1Cc1ccccc1)N1CCN(Cc2ccc3c(c2)OCO3)CC1 (configuration not stated)
AC50 [1]: 6.31 µM [falling, single point]

Cc1sc2ncn3ncnc3c2c1C
AC50 [1]: 12.6 µM [falling, partial curve]

CC(C)COc1ccc(C(=O)Nc2onc3c2CCCC3)cc1
AC50 [1]: 5.01 µM [rising, partial curve, poor fit]

CCc1ccc(N2CC(c3nc4ccccc4n3Cc3ccccc3C)CC2=O)cc1 (configuration not stated)
AC50 [1]: 10 µM [falling, partial curve]

CCOc1ccc(C(=O)NCCc2sc(-c3cccc(F)c3)nc2C)cc1OCC
AC50 [1]: 20 µM [falling, single point]

CCOC(=O)c1cnc2ccc(OC(F)(F)F)cc2c1Nc1ccccc1C(=O)O
AC50 [1]: 20 µM [falling, single point]

Cc1ccc(NC(=O)CCCN2C(=O)COc3ccc(C)cc32)c(Cl)c1
AC50 [1]: 10 µM [falling, single point]

c1ccc(N2CCN(c3ncnc4c3oc3ccccc34)CC2)cc1
AC50 [1]: 3.98 µM [falling, full curve]

CCC(C)NC(=O)c1c(N)n(/N=C/c2cccnc2)c2nc3ccccc3nc12 (configuration not stated)
AC50 [1]: 1 µM [falling, full curve]

COc1ccc(-c2cnc(C)o2)cc1S(=O)(=O)Nc1cccc(C(F)(F)F)c1
AC50 [1]: 31.6 µM [falling, partial curve]

O=C(Nc1cccc(C(F)(F)F)c1)C1CCN(S(=O)(=O)c2cccc3nsnc23)CC1
AC50 [1]: 5.01 µM [falling, full curve, poor fit]

COc1ccc(C(=O)CC2(O)C(=O)N(CCc3ccccc3)c3ccc(Br)cc32)cc1OC (configuration not stated)
AC50 [1]: 20 µM [falling, partial curve]

O=C(Cn1nc2c(cc1=O)CCCC2)NCc1ccccc1
AC50 [1]: 3.16 µM [rising, single point]

O=c1cc(CSc2nnnn2-c2ccccc2)nc2scc(-c3ccccc3)n12
AC50 [1]: 20 µM [falling, partial curve]

COc1cccc(-n2c(=O)c3c4c(sc3n(Cc3ccccc3C#N)c2=O)CCCC4)c1
AC50 [1]: 3.98 µM [rising, single point]

CCOC(=O)/C(C#N)=C1/C=Nc2ccccc2N1
AC50 [1]: 3.98 µM [falling, full curve]

O=S(=O)(c1ccc2nc(Nc3ccc(Br)cc3F)ccc2c1)N1CCCC1
AC50 [1]: 0.126 µM [rising, full curve, poor fit]

c1c2c(cc3sc(N4CCOCC4)nc13)OCCO2
AC50 (measured here: IkB-luc green channel): 0.158 µM [rising, full curve, poor fit] | AC50 (measured here: control luc red channel): 3.16 µM [falling, full curve, poor fit]

CN(C(=O)CSc1nc2ccc(NC(=O)c3ccccc3)cc2s1)c1ccccc1
AC50 [1]: 12.6 µM [falling, partial curve]

CCOC(=O)c1[nH]c2ccc(F)cc2c1NC(=O)C(C)N1CCc2cc(OC)c(OC)cc2C1 (configuration not stated)
AC50 [1]: 12.6 µM [falling, partial curve]

Cc1ccc(-n2nc(C)c3c(C(=O)Nc4ccc(C)cc4Cl)cc(C)nc32)cc1
AC50 [1]: 10 µM [falling, partial curve]

COc1cc(CN(C(=O)c2ccc(C)cc2)c2ccccn2)cc(OC)c1OC
AC50 [1]: 31.6 µM [falling, single point]

CCOC(=O)CSc1nc(-c2ccc(OC)cc2)cc(C(F)(F)F)c1C#N
AC50 [1]: 6.31 µM [rising, partial curve]

CC(C)(C)C1CCc2c(sc(NC(=O)Cn3nnc(-c4cccc(C(F)(F)F)c4)n3)c2C#N)C1 (configuration not stated)
AC50 [1]: 7.94 µM [falling, partial curve]

Cn1c(CNC(=O)CSc2n[nH]c(-c3ccccc3)n2)nc2ccccc21
AC50 [1]: 39.8 µM [falling, single point]

Fc1ccc(Nc2nc3nonc3nc2Nc2cccc(C(F)(F)F)c2)cc1
AC50 [1]: 0.501 µM [falling, full curve]

O=C(Cn1c(=O)n(-c2ccc(Cl)cc2)c(=O)c2c3c(sc21)CCC3)c1ccc(F)cc1
AC50 [1]: 12.6 µM [falling, partial curve]
